# Measured values from PubChem BioAssay AID602346 (Broad Institute, 2012).
# The whole screen tested about 340,000 compounds, of which about 1,200 (0.35%) were called active. Inconclusive means that the source gave no clear call. Such entries were picked first, then a sample of the others. Rule as the data show it: active = inhibition above about 50% (passing the limit was not always enough); inconclusive = no clear call, values can overlap the other calls; inactive = below about 31%.
# Experiment: blockers of Vif multimerization in cells – imaging, HEK293T, single point, primary screen (AID 602346)
# Conditions: Vif self-association by quenched fluorescence, 24 h, at 7.49 µM, stronger effect = higher value
row,SMILES,inhibition
1,COc1ccccc1NCCC#N,inconclusive: 35%
2,O=C(COc1ccc(-n2cnnn2)cc1)Nc1cc(Cl)cc(Cl)c1,inconclusive: 48.4%
3,COCCNC(=O)c1nn2c(C(F)(F)F)cc(-c3ccccc3)nc2c1Cl,active: 106%
4,N/C(CN1CCCCC1)=N\S(=O)(=O)c1cc(Cl)cc(Cl)c1,inconclusive: 24.4%
5,Cc1ccc(-n2nc3c(=O)n(CC(=O)NCCC4=CCCCC4)nc(C)c3c2C)cc1,inconclusive: 22.7%
6,CC(C)(O)C#Cc1ccc(C(=O)N2CCCC(CCC(=O)NCc3ccccc3F)C2)cc1 (stereo unspecified),inconclusive: 24.7%
7,O=C(Nc1nnc(SCc2ccc(F)cc2)s1)C1=COCCO1,inactive: 2.39%
8,O=C1c2ccccc2[C@@H]2C[C@@H](O)[C@H](Nc3cccc4ccccc34)CCN12,active: 83%
9,Nc1c(C(=O)Nc2ccc(S(=O)(=O)N3CCCC3)cc2)sc2nc3ccc(OC(F)(F)F)cc3cc12,active: 95.6%
10,N#C/C(=C(/O)CCl)c1nc2ccccc2[nH]1,inactive: 6.09%
11,CC(C)(C)c1ccc(NC(=O)COC(=O)c2ccc([N+](=O)[O-])s2)cc1,inactive: -1.26%
12,O=C(COC(=O)CN1C(=O)c2ccccc2C1=O)Nc1ccccc1C(F)(F)F,inactive: 9.04%
13,COc1ccc(S(=O)(=O)NC(=O)C2(C)CCN2C(=O)Cc2cc(C)cc(C)c2)cc1OC (stereo unspecified),inconclusive: 31.9%
14,COc1cc(CN2CCN(Cc3c[nH]c4ccccc34)CC2CCO)cc(OC)c1 (stereo unspecified),inconclusive: 20.8%
15,COc1ccc(/C=C/c2nc(S(=O)(=O)c3ccccc3)c(N(C)C)o2)cc1,inconclusive: 26.2%
16,Cc1ccc(/C=N/c2sc3c(c2C#N)CCC3)s1,active: 53.4%
17,COc1ccc(CC(=O)Nc2cccc(-c3nnc(-c4cccc(C)c4)o3)c2)cc1OC,inconclusive: 20.3%
18,COc1ccc(NC(=O)c2ccccc2NC(=O)CSc2ccc(C)cc2)cc1,inconclusive: 49.3%
19,COc1ccc(-c2sc3cc4c(cc3c2C#CC2(O)CCCCC2)OCO4)cc1,inactive: -5.67%
20,CCC1(C)Cc2nc3[nH]c(=S)n(-c4ccccc4C)c(=O)c3cc2CO1 (stereo unspecified),inconclusive: 47.6%
21,Nc1ccccc1SCC(=O)Nc1ccc(N2CCOCC2)cc1,active: 57.5%
22,CSCCC(NC(=O)c1ccccc1Br)C(=O)NNC(=O)c1cc(C)oc1C (stereo unspecified),inconclusive: 24.6%
23,COc1cc(NC2CCCCC2O)c2nc(-c3ccc(Cl)cc3)ccc2c1 (stereo unspecified),inconclusive: 42.1%

row,SMILES,inhibition
1,Cc1ccccc1C(N)=O,inconclusive: 48.9%
2,CCOC(=O)c1c(C)[nH]c(C)c1C(=O)COC(=O)C1CC(=O)N(CCc2ccccc2)C1 (stereo unspecified),active: 50.8%
3,COCCn1c(-c2ccc3ccccc3c2)nc2c1c(=O)[nH]c(=O)n2CC(C)C,inactive: 26.6%
4,COc1cc(/C=C/C(=O)OC(C)C(=O)NC2CCCCC2C)cc(Cl)c1OC (stereo unspecified),inactive: 7.45%
5,COC(=O)Nc1nnc(-c2ccncc2)s1,inactive: -5.96%
6,COc1ccc(OC)c(NC(=O)CSc2n[nH]c(-c3cccnc3)n2)c1,inconclusive: 38.2%
7,Cc1nc(NC(=O)c2cc3ccccc3o2)ccc1Br,inactive: 6.38%
8,Nc1nc(CN2CCN(Cc3ccccc3)CC2)nc(Nc2ccccc2)n1,inconclusive: 24.7%
9,O=C(CN1CCN(C(=O)c2ccco2)CC1)Nc1ccc(F)cc1F,inconclusive: 40.5%
10,Oc1ccc2ccccc2c1CNc1ccccc1,inconclusive: 20.5%
11,O=C(COC(=O)c1cc([N+](=O)[O-])ccc1NCCO)c1ccc(Cl)cc1,inconclusive: 14.6%
12,Cc1ccc(OCc2nnc(NC(=O)c3ccco3)s2)c(C)c1,inconclusive: 23.7%
13,COc1ccc(Nc2cc(C(=O)NCCCN3CCOCC3)c3ccccc3n2)cc1OC,inconclusive: 31.9%
14,O=C(O)[C@H]1Cc2ccccc2CN1S(=O)(=O)c1ccc(F)cc1,inactive: 3.58%
15,CN1CCN(CC(=O)Nc2ccccc2[N+](=O)[O-])CC1,inactive: 10.9%
16,COc1ccccc1C(=O)COC(=O)Cc1ccccc1F,inconclusive: 10.3%
17,O=C(COc1ccc(Cl)c(Cl)c1)NC1CCS(=O)(=O)C1 (stereo unspecified),inconclusive: 36.3%
18,COc1ccc(Cc2nnc(SCC(=O)Nc3ccc(N4CCOCC4)cc3)n2C)cc1,inconclusive: 31.4%
19,Cc1cc(C)nc(SCCN2CCOCC2)n1,inconclusive: 28.1%
20,O=C(O)Cc1sc(Nc2ccccc2)nc1-c1cccs1,inconclusive: 31%
21,COc1ccccc1Nc1nc2ccc(C)cc2cc1C#N,inconclusive: 41.4%
22,CC(C)NC1=C(Cl)C(=O)c2ccccc2C1=O,active: 63%
23,CC1CCCCN1Cc1ccc(N(C)C)cc1 (stereo unspecified),inconclusive: 45.5%

row,SMILES,inhibition
1,CC(C)CCNC(=O)C(c1ccncc1)N(Cc1cccs1)C(=O)Cn1nnc(-c2ccc(F)cc2)n1 (stereo unspecified),inconclusive: 41.9%
2,N/C(=N\OC(=O)c1ccc(Cl)cc1[N+](=O)[O-])c1ccccn1,inactive: 3.69%
3,Cc1cccc(NC(=O)C2CCN(C(=O)c3ccccc3C)CC2)n1,inconclusive: 44.7%
4,O=S(=O)(c1ccc(F)cc1)N1CCN(c2ncccn2)CC1,inactive: -0.817%
5,CSc1ccc(/C=C(\C#N)C(=O)NC2CCCCC2)cc1,inactive: -3%
6,Cc1ccc(NC(=O)CN(C)c2ccc(S(=O)(=O)N3CCN(C)CC3)cn2)cc1,inconclusive: 44.1%
7,CCc1ccc(NC(=O)C(C)OC(=O)/C=C/c2ccc(O)c(OC)c2)cc1 (stereo unspecified),inconclusive: 31.5%
8,Cc1[nH]n(-c2ccccc2)c(=O)c1C1(C(F)(F)F)C(=O)N(c2ccc(F)cc2)C2=C1C(=O)CC(C)(C)C2 (stereo unspecified),inconclusive: 39%
9,O=C1C(=Nc2cccc(Cl)c2)CC(c2ccc(Cl)cc2)N1c1cccc(Cl)c1 (stereo unspecified),inconclusive: 41.4%
10,CN1CCN(S(=O)(=O)c2cccc(C(=O)NC3CCCc4ccccc43)c2)CC1 (stereo unspecified),inconclusive: 41.4%
11,COc1cccc(-c2onc3ccc(C(=O)/C=C/N(C)C)cc23)c1,inconclusive: 39.6%
12,Cc1nc(SCC(=O)Nc2cccnc2Cl)nc(C)c1C,inconclusive: 37.5%
13,COc1ccc(OCCn2c(C)c(/C=N/n3cnnc3)c3ccccc32)cc1,inconclusive: 30.3%
14,O=C(c1ccccc1)c1ccc(OCC(O)CN2CCN(S(=O)(=O)N3CCCCC3)CC2)cc1 (stereo unspecified),inactive: -21.6%
15,CCn1c(=O)c(C(=O)CN2CCc3ccccc32)c(N)n(Cc2ccccc2)c1=O,inconclusive: 18.9%
16,O=C(COC(=O)c1cc(Cl)nc(Cl)c1)NC1CCCCCC1,inconclusive: 31.8%
17,CCOCCCNC(=O)CSc1ccccc1,inconclusive: 28.5%
18,O=C(NC1CCCC1)c1cc2cc(Br)ccc2o1,inactive: 6.14%
19,COc1ccccc1-c1nnc(Nc2nc3c(OC)cccc3s2)o1,inconclusive: 32.6%
20,CCN(CC)c1ccc2c(Cl)c(Br)c(=O)oc2c1,inconclusive: 45.8%
21,COC(=S)Nc1cccc(C(F)(F)F)c1,inactive: 3.31%
22,CCOc1ccc(-c2noc(CCCC(=O)NC3CCCC3)n2)cc1OC,inactive: -10.8%
23,Cc1cccc(OCCC(=O)Nc2ccc(N3CCOCC3)cc2N2CCOCC2)c1,inconclusive: 30.5%

row,SMILES,inhibition
1,CC(=O)Nc1ccc(S(=O)(=O)N[C@@H](C)C(=O)OCC(=O)c2ccc[nH]2)cc1,inconclusive: 46.5%
2,COc1ccc(-n2nc(C(=O)NCC(=O)N3CCCC3)c3ccccc3c2=O)cc1Cl,inconclusive: 43%
3,CCOC(=O)c1ccc[n+](CC(=O)Nc2cc(C(F)(F)F)ccc2Cl)c1,active: 52.9%
4,CC(C)CCNC(=O)CCc1nnc(COc2ccccc2)o1,active: 85.5%
5,COc1cccc(C(=O)NCCCNC(=O)c2cccnc2)c1,active: 86.9%
6,COc1ccc(C(=O)Nc2c(Cl)cc(Cl)cc2C(=O)N2CCOCC2)cc1,active: 65.1%
7,CCOC(=O)c1c(N=CN(C)C)c(C#N)c2n1CCCC2,inconclusive: 26.1%
8,CCOC(=O)/C(=N\O)C1=NC(C)(C)Cc2ccccc21,inconclusive: 47.8%
9,NS(=O)(=O)c1cccc(NC(=O)CCN2C(=O)C3CCCCC3C2=O)c1 (stereo unspecified),inconclusive: 39.9%
10,Cc1ccc(S(=O)(=O)[N-]c2nc3ccccc3nc2-n2cc[n+](Cc3ccccc3)c2)cc1,inactive: -9.9%
11,Cc1ccc(C(=O)COC(=O)c2cc(=O)[nH]c3ccccc23)cc1C,active: 65.5%
12,COc1ccc(-c2csc(Nc3ccc(S(=O)(=O)Nc4cc(C)on4)cc3)n2)cc1C,inactive: -3.67%
13,CCN1CCCC1CNC(=O)c1ccc2c(c1)NC(=O)/C(=C\c1ccccc1F)S2 (stereo unspecified),inconclusive: 27.2%
14,O=C(NCc1cccc(F)c1)c1cccc2c1C(=O)c1ccc(N3CCC(Cc4ccccc4)CC3)cc1S2(=O)=O,active: 121%
15,COc1ccc(C(=O)c2cc(OC)c(OC)c(OC)c2)cc1OC,inconclusive: 35.6%
16,CN=c1sc2ccccc2n1CC(O)COCc1ccco1 (stereo unspecified),inactive: 3.49%
17,CC(=O)c1sc(C(C)(C)C)cc1NC(=O)CCC(=O)O,inconclusive: 25.1%
18,CCN(CC)C(=O)c1ccc(C(=O)c2c(C)cc(C)cc2C)cc1,inconclusive: 46.5%
19,COc1ccc(N(CC(=O)Nc2ccc(C)cn2)S(=O)(=O)c2c(C)noc2C)cc1,inconclusive: 28.6%
20,Cc1cccc(OCC(=O)Nc2ccc3c(C)cc(=O)oc3c2)c1,inactive: -0.016%
21,O=C(CCc1ccccc1)Nc1ccccc1,active: 55.3%
22,CCC(=O)N1CCCc2cc(S(=O)(=O)NCc3cccs3)ccc21,inconclusive: 36.1%

# At a glance, four of the compounds above.
row,SMILES,inhibition
8,O=C1c2ccccc2[C@@H]2C[C@@H](O)[C@H](Nc3cccc4ccccc34)CCN12,active: 83%
9,Nc1c(C(=O)Nc2ccc(S(=O)(=O)N3CCCC3)cc2)sc2nc3ccc(OC(F)(F)F)cc3cc12,active: 95.6%
10,N#C/C(=C(/O)CCl)c1nc2ccccc2[nH]1,inactive: 6.09%
11,CC(C)(C)c1ccc(NC(=O)COC(=O)c2ccc([N+](=O)[O-])s2)cc1,inactive: -1.26%
